Experimental data from patent publication US11744899B2, “Pharmaceutical composition containing a hyaluronic acid derivative” (SEIKAGAKU CORPORATION, priority 2018, dated 2023).
Some results were stated once for a whole list of compounds, not compound by compound. For some assays here: At least one structure is not confirmed: it was looked up by name or label, or the drawing left a doubt.

What was measured:
[1] = Storage test (1-2) using 10 mM citrate buffer solution (pH 5.1); type: physicochemical; settings: additional component 5 wt %; 1.0 wt % hyaluronic acid derivative, 10 mM citrate buffer pH 5.1, 1 week at 60° C., HPLC; control solution = 1
Procedure: A citric acid aqueous solution having a citric acid concentration of 15 mM and a trisodium citrate aqueous solution having a citrate concentration of 15 mM were mixed at a ratio (volume ratio) of 27:37, whereby a citrate buffer solution was prepared. The pH of the citrate buffer solution after preparation was 5.1.
1.5 g of the hyaluronic acid derivative of the above Synthesis Example and 98.5 g of each of the various buffer solutions prepared above were mixed and stirred for 2 hours in a water bath at 70° C., whereby a 1.5 wt % hyaluronic acid derivative solution was prepared. […]
(§1) Each of the test samples was stored for 1 week in a thermostat chamber at 60° C., and thereafter, the accumulation amount of each of diclofenac and diclofenac lactam was measured by HPLC.
(§2) The amount of diclofenac and the amount of diclofenac lactam were calculated as relative values when each of the amount of diclofenac and the amount of diclofenac lactam present in the control solution (1 wt % hyaluronic acid derivative solution) after being stored for 1 week at 60° C. was assumed to be 1.
Each of the prepared various test samples was filled in a screw vial (AS ONE Corporation, Cat No. 3-1599-01) and left to stand at 60° C. for 1 week. The amount of diclofenac and the amount of diclofenac lactam present in the solution after being left to stand were quantitatively analyzed by HPLC. […]

[2] = Storage test (1-1) using 50 mM phosphate buffer solution (pH 6.5); type: physicochemical; settings: 1.0 wt % hyaluronic acid derivative, 50 mM phosphate buffer pH 6.5, 1 week at 60° C., HPLC, control solution = 1
Procedure: 1.5 g of the hyaluronic acid derivative of the above Synthesis Example and 98.5 g of each of the various buffer solutions prepared above were mixed and stirred for 2 hours in a water bath at 70° C., whereby a 1.5 wt % hyaluronic acid derivative solution was prepared.
Additional component aqueous solutions to be added to the hyaluronic acid derivative solution were prepared using various additional components and WFI so that the concentration of each component is three times as high as the final concentration (wt %).
2.0 g of the 1.5 wt % hyaluronic acid derivative solution prepared above and 1.0 g of the additional component aqueous solution were mixed, whereby a test sample (final concentration of hyaluronic acid derivative: 1.0 wt %) was prepared.
The test samples prepared above containing each of the various buffer solutions (50 mM phosphate buffer solution, 10 mM citrate buffer solution, 10 mM acetate buffer solution, or 30 mM acetate buffer solution) were subjected to a storage test.
as §1, §2
Each of the prepared various test samples was filled in a screw vial (AS ONE Corporation, Cat No. 3-1599-01) and left to stand at 60° C. for 1 week. The amount of diclofenac and the amount of diclofenac lactam present in the solution after being left to stand were quantitatively analyzed by HPLC.
The HPLC conditions are as follows.
The elution time of each of diclofenac and diclofenac lactam was determined by performing measurement in advance using a standard substance.

sodium deoxycholate
Dic amount: the relative value of the amount of diclofenac [1]: exceeded 1 | Lac amount: the relative value of the amount of diclofenac lactam [1]: exceeded 1

Cl.N=C(N)NCCC[C@H](N)C(=O)O [L-arginine hydrochloride]
Dic amount: the relative value of the amount of diclofenac ([2]; additional component 3 wt %): exceeded 1 | Lac amount: the relative value of the amount of diclofenac lactam ([2]; additional component 3 wt %): exceeded 1

C=CCOCC(O)CO (centres unmarked) [allyloxy-1,2-propanediol]
Dic amount: the relative value of the amount of diclofenac ([2]; additional component 5 wt %): exceeded 1 | Lac amount: the relative value of the amount of diclofenac lactam ([2]; additional component 5 wt %): exceeded 1

Cl.NCCCC[C@H](N)C(=O)O [L-lysine hydrochloride]
Dic amount: the relative value of the amount of diclofenac ([2]; additional component 3 wt %): exceeded 1 | Lac amount: the relative value of the amount of diclofenac lactam ([2]; additional component 3 wt %): exceeded 1

O=C(O)c1ccc(-c2c3nc(c(-c4ccc(C(=O)O)cc4)c4ccc([nH]4)c(-c4ccc(C(=O)O)cc4)c4nc(c(-c5ccc(C(=O)O)cc5)c5ccc2[nH]5)C=C4)C=C3)cc1 [tetrakis(4-arboxyphenyl)porphyrin]
Dic amount: the relative value of the amount of diclofenac ([2]; additional component 1.5 wt %): exceeded 1 | Lac amount: the relative value of the amount of diclofenac lactam ([2]; additional component 1.5 wt %): exceeded 1

COc1ccc(O)c(C(C)(C)C)c1 [butylhydroxyanisole]
Lac amount: the relative value of the amount of diclofenac lactam ([2]; additional component 5 wt %): exceeded 1
